In US9352015B2, “Antimicrobial peptides” (priority 2009, dated 2016):
Where two headings read alike, the source gives them in different places.

System: Pseudomonas aeruginosa
Settings: for Therapeutic index HC50/MIC: HC50 over geometric mean MIC; for Therapeutic index HC50/MIC / Therapeutic index Fold (improvement compared to D1): P. aeruginosa; for Pseudomonas aeruginosa Therapeutic index (HC50/MICGM): Table 12

| SMILES | Therapeutic index HC50/MIC (Brain Heart Infusion medium) | Therapeutic index Fold (improvement compared to D1) (Brain Heart Infusion medium) | Therapeutic index HC50/MIC (Mueller Hinton medium) | Therapeutic index Fold (improvement compared to D1) (Mueller Hinton medium) | Pseudomonas aeruginosa Therapeutic index (HC50/MICGM) |
| --- | --- | --- | --- | --- | --- |
| CC[C@@H](C)[C@@H](NC(=O)[C@@H](CC(C)C)NC(=O)[C@@H](CCCCN)NC(=O)[C@@H](CC(C)C)NC(=O)[C@@H](CC(C)C)NC(=O)[C@H](NC(=O)[C@@H](Cc1c[nH]cn1)NC(=O)[C@@H](CC(C)C)NC(=O)[C@@H](CCCCN)NC(=O)[C@H](NC(=O)[C@@H](CCCCN)NC(=O)[C@@H](CCCCN)NC(=O)[C@@H](CC(C)C)NC(=O)[C@@H](CO)NC(=O)[C@@H](CCCCN)NC(=O)[C@@H](Cc1ccccc1)NC(=O)[C@H](NC(=O)[C@@H](CCCCN)NC(=O)[C@@H](CC(C)C)NC(=O)[C@@H](Cc1ccccc1)NC(=O)[C@@H](CO)NC(=O)[C@@H](CCCCN)NC(=O)[C@@H](Cc1c[nH]c2ccccc12)NC(=O)[C@@H](CCCCN)NC(C)=O)[C@H](C)O)[C@H](C)O)[C@H](C)O)C(=O)N[C@H](CO)C(=O)N[C@H](CO)C(N)=O [Peptide D5, Ac-KWKSFLKTFKSLKKTKLHTLLKLISS-amide] | 2.1 | 0.16 | 4.3 | 0.13 | 4.3 |
| CC[C@@H](C)[C@@H](NC(=O)[C@@H](C)NC(=O)[C@@H](CCCCN)NC(=O)[C@@H](CC(C)C)NC(=O)[C@@H](CC(C)C)NC(=O)[C@H](NC(=O)[C@@H](CCCCN)NC(=O)[C@@H](CC(C)C)NC(=O)[C@@H](CCCCN)NC(=O)[C@@H](CCCCN)NC(=O)[C@@H](CCCCN)NC(=O)[C@@H](CCCCN)NC(=O)[C@@H](CC(C)C)NC(=O)[C@@H](CCCCN)NC(=O)[C@@H](CO)NC(=O)[C@@H](Cc1ccccc1)NC(=O)[C@H](NC(=O)[C@@H](CCCCN)NC(=O)[C@@H](CC(C)C)NC(=O)[C@@H](Cc1ccccc1)NC(=O)[C@@H](CO)NC(=O)[C@@H](CCCCN)NC(=O)[C@@H](Cc1c[nH]c2ccccc12)NC(=O)[C@@H](CCCCN)NC(C)=O)[C@H](C)O)[C@H](C)O)C(=O)N[C@H](CO)C(=O)N[C@H](CCCCN)C(N)=O [Peptide D13, Ac-KWKSFLKTFSKLKKKKLKTLLKAISK-amide] | – | – | – | – | 42.3 |
| CC[C@@H](C)[C@@H](NC(=O)[C@@H](C)NC(=O)[C@@H](CO)NC(=O)[C@@H](CC(C)C)NC(=O)[C@@H](CC(C)C)NC(=O)[C@H](NC(=O)[C@@H](CCCCN)NC(=O)[C@@H](CC(C)C)NC(=O)[C@@H](C)NC(=O)[C@@H](CCCCN)NC(=O)[C@@H](CCCCN)NC(=O)[C@@H](CCCCN)NC(=O)[C@@H](C)NC(=O)[C@@H](CCCCN)NC(=O)[C@@H](CO)NC(=O)[C@@H](Cc1ccccc1)NC(=O)[C@H](NC(=O)[C@@H](CO)NC(=O)[C@@H](CC(C)C)NC(=O)[C@@H](Cc1ccccc1)NC(=O)[C@@H](CO)NC(=O)[C@@H](CO)NC(=O)[C@@H](Cc1c[nH]c2ccccc12)NC(=O)[C@@H](CO)NC(C)=O)[C@H](C)O)[C@H](C)O)C(=O)N[C@H](CO)C(=O)N[C@H](CO)C(N)=O [Peptide D17, Ac-SWSSFLSTFSKAKKKALKTLLSAISS-amide] | 1.8 | 0.13 | 2.8 | 0.08 | – |
| CC[C@@H](C)[C@@H](NC(=O)[C@@H](C)NC(=O)[C@@H](CO)NC(=O)[C@@H](CC(C)C)NC(=O)[C@@H](CC(C)C)NC(=O)[C@H](NC(=O)[C@@H](CCCCN)NC(=O)[C@@H](CC(C)C)NC(=O)[C@@H](C)NC(=O)[C@@H](CCCCN)NC(=O)[C@@H](CCCCN)NC(=O)[C@@H](CCCCN)NC(=O)[C@@H](C)NC(=O)[C@@H](CCCCN)NC(=O)[C@@H](CO)NC(=O)[C@@H](Cc1ccccc1)NC(=O)[C@H](NC(=O)[C@@H](CCCCN)NC(=O)[C@@H](CC(C)C)NC(=O)[C@@H](Cc1ccccc1)NC(=O)[C@@H](CO)NC(=O)[C@@H](CO)NC(=O)[C@@H](Cc1c[nH]c2ccccc12)NC(=O)[C@@H](CO)NC(C)=O)[C@H](C)O)[C@H](C)O)C(=O)N[C@H](CO)C(=O)N[C@H](CO)C(N)=O [Peptide D18, Ac-SWSSFLKTFSKAKKKALKTLLSAISS-amide] | 3.7 | 0.28 | 5.6 | 0.16 | – |
| CC[C@@H](C)[C@@H](NC(=O)[C@@H](C)NC(=O)[C@@H](CCCCN)NC(=O)[C@@H](CC(C)C)NC(=O)[C@@H](CC(C)C)NC(=O)[C@H](NC(=O)[C@@H](CCCCN)NC(=O)[C@@H](CC(C)C)NC(=O)[C@@H](C)NC(=O)[C@@H](CCCCN)NC(=O)[C@@H](CCCCN)NC(=O)[C@@H](CCCCN)NC(=O)[C@@H](C)NC(=O)[C@@H](CCCCN)NC(=O)[C@@H](CO)NC(=O)[C@@H](Cc1ccccc1)NC(=O)[C@H](NC(=O)[C@@H](CCCCN)NC(=O)[C@@H](CC(C)C)NC(=O)[C@@H](Cc1ccccc1)NC(=O)[C@@H](CO)NC(=O)[C@@H](CO)NC(=O)[C@@H](Cc1c[nH]c2ccccc12)NC(=O)[C@@H](CO)NC(C)=O)[C@H](C)O)[C@H](C)O)C(=O)N[C@H](CO)C(=O)N[C@H](CO)C(N)=O [Peptide D19, Ac-SWSSFLKTFSKAKKKALKTLLKAISS-amide] | 3.7 | 0.27 | 4.6 | 0.14 | – |
| CC[C@@H](C)[C@@H](NC(=O)[C@@H](C)NC(=O)[C@@H](CCCCN)NC(=O)[C@@H](CC(C)C)NC(=O)[C@@H](CC(C)C)NC(=O)[C@H](NC(=O)[C@@H](CCCCN)NC(=O)[C@@H](CC(C)C)NC(=O)[C@@H](C)NC(=O)[C@@H](CCCCN)NC(=O)[C@@H](CCCCN)NC(=O)[C@@H](CCCCN)NC(=O)[C@@H](C)NC(=O)[C@@H](CCCCN)NC(=O)[C@@H](CO)NC(=O)[C@@H](Cc1ccccc1)NC(=O)[C@H](NC(=O)[C@@H](CCCCN)NC(=O)[C@@H](CC(C)C)NC(=O)[C@@H](Cc1ccccc1)NC(=O)[C@@H](CO)NC(=O)[C@@H](CCCCN)NC(=O)[C@@H](Cc1c[nH]c2ccccc12)NC(=O)[C@@H](CO)NC(C)=O)[C@H](C)O)[C@H](C)O)C(=O)N[C@H](CO)C(=O)N[C@H](CO)C(N)=O [Peptide D20, Ac-SWKSFLKTFSKAKKKALKTLLKAISS-amide] | 7.8 | 0.58 | 6.2 | 0.18 | – |
| CC[C@@H](C)[C@@H](NC(=O)[C@@H](C)NC(=O)[C@@H](CCCCN)NC(=O)[C@@H](CC(C)C)NC(=O)[C@@H](CC(C)C)NC(=O)[C@H](NC(=O)[C@@H](CCCCN)NC(=O)[C@@H](CC(C)C)NC(=O)[C@@H](C)NC(=O)[C@@H](CCCCN)NC(=O)[C@@H](CCCCN)NC(=O)[C@@H](CCCCN)NC(=O)[C@@H](C)NC(=O)[C@@H](CCCCN)NC(=O)[C@@H](CO)NC(=O)[C@@H](Cc1ccccc1)NC(=O)[C@H](NC(=O)[C@@H](CCCCN)NC(=O)[C@@H](CC(C)C)NC(=O)[C@@H](Cc1ccccc1)NC(=O)[C@@H](CO)NC(=O)[C@@H](CCCCN)NC(=O)[C@@H](Cc1c[nH]c2ccccc12)NC(=O)[C@@H](CO)NC(C)=O)[C@H](C)O)[C@H](C)O)C(=O)N[C@H](CO)C(=O)N[C@H](CCCCN)C(N)=O [Peptide D21, Ac-SWKSFLKTFSKAKKKALKTLLKAISK-amide] | 14.3 | 1.06 | 14.2 | 0.42 | – |
| CC(=O)N[C@H](CCCCN)C(=O)N[C@H](CC(C)C)C(=O)N[C@H](CCCCN)C(=O)N[C@H](CO)C(=O)N[C@H](CC(C)C)C(=O)N[C@H](CC(C)C)C(=O)N[C@H](CCCCN)C(=O)N[C@@H](C(=O)N[C@H](CC(C)C)C(=O)N[C@H](CO)C(=O)N[C@H](CCCCN)C(=O)N[C@H](CC(C)C)C(=O)N[C@H](CCCCN)C(=O)N[C@H](CCCCN)C(=O)N[C@H](CCCCN)C(=O)N[C@H](CCCCN)C(=O)N[C@H](CC(C)C)C(=O)N[C@H](CCCCN)C(=O)N[C@@H](C(=O)N[C@H](CC(C)C)C(=O)N[C@H](CC(C)C)C(=O)N[C@H](CCCCN)C(=O)N[C@H](C)C(=O)N[C@H](CC(C)C)C(=O)N[C@H](CO)C(=O)N[C@H](CCCCN)C(N)=O)[C@H](C)O)[C@H](C)O [Peptide D23, Ac-KLKSLLKTLSKLKKKKLKTLLKALSK-amide] | – | – | – | – | 95.1 |
